Test results published in patent US11519859B2, “Rhodol-based thallium sensors for high-throughput screening of potassium channels” (priority 2018, dated 2022).

Tested on: HEK-293 cells co-expressing GIRK1 and GIRK2
Assay: Fluorescence microscopy, cellular localization
Type: cell-based
Settings: dye incubation 1 h, Hoechst counterstain; Thallos 1 μM, 8c 5 μM, Rhodamine 123 1 μM

Compound | cellular localization
COc1cc(NC(=O)c2ccc3c(c2)C(=O)OC32c3ccc(OC(C)=O)cc3Oc3cc(N(C)C)ccc32)ccc1N(CC(=O)OCOC(C)=O)CC(=O)OCOC(C)=O (centres unmarked) [Compound 8c, bis(acetoxymethyl) 2,2′-((4-(3′-acetoxy-6′-(dimethylamino)-3-oxo-3H-spiro[isobenzofuran-1,9′-xanthene]-5-carboxamido)-2-methoxyphenyl)azanediyl)diacetate] | diffuse cytoplasmic staining
Rhodamine 123 [reference compound] | punctuate mitochondrial staining
